Here are results for one molecule from PMC9452699.

The target in assay [1] is T1, flag-Batf3 Mut (H57Q, E58A, Q65D, E79K) (UniProt Q9D275).
T1 sequence: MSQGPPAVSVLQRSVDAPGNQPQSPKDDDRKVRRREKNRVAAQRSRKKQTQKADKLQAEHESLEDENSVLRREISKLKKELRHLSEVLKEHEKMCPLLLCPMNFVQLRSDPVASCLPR
Description: co-IP; lysate (IP lysis buffer) of transduced mouse CD4+ T cells after 48 hrs in iTreg conditions, incubated overnight with anti-flag antibody agarose beads, washed 3x with PBS; blot with anti-FLAG, anti-IRF4 and anti-JUNB.

Assay [2] concerns the target T2, flag-Batf3 WT (UniProt Q9D275).
T2 sequence: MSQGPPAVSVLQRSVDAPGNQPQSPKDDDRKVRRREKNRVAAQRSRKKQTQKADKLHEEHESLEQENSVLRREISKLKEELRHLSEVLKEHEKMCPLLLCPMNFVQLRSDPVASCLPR
The description is as above.

Results are given in words; binding and its absence hold for the method and conditions named. Binding seen in cells or lysates may run through a third protein. Some results given as binding are weak or reduced against the parent protein; the word gives no strength. Tags and fused reporters may be left off the sequences shown.

B1: JUNB (protein, UniProt P09450 1-344)
chain: MCTKMEQPFYHDDSYAAAGYGRSPGSLSLHDYKLLKPTLALNLADPYRGLKGPGARGPGPEGSGAGSYFSGQGSDTGASLKLASTELERLIVPNSNGVITTTPTPPGQYFYPRGGGSGGGTGGGVTEEQEGFADGFVKALDDLHKMNHVTPPNVSLGASGGPQAGPGGVYAGPEPPPVYTNLSSYSPASAPSGGSGTAVGTGSSYPTATISYLPHAPPFAGGHPAQLGLSRGASAFKEEPQTVPEARSRDATPPVSPINMEDQERIKVERKRLRNRLAATKCRKRKLERIARLEDKVKTLKAENAGLSSAAGLLREQVAQLKQKVMTHVSNGCQLLLGVKGHAF
B1: the binding result in assay [1] and in assay [2] was “binds” in each case.
